Binding data for 2 molecules are collected here from US20060025342A1 (OSTEOTROPHIN, published 2006).

Assay [1] deals with T1, human PTH/PTHrP receptor (PTH1 receptor) (human, UniProt Q03431 27-593).
T1 sequence (looked up): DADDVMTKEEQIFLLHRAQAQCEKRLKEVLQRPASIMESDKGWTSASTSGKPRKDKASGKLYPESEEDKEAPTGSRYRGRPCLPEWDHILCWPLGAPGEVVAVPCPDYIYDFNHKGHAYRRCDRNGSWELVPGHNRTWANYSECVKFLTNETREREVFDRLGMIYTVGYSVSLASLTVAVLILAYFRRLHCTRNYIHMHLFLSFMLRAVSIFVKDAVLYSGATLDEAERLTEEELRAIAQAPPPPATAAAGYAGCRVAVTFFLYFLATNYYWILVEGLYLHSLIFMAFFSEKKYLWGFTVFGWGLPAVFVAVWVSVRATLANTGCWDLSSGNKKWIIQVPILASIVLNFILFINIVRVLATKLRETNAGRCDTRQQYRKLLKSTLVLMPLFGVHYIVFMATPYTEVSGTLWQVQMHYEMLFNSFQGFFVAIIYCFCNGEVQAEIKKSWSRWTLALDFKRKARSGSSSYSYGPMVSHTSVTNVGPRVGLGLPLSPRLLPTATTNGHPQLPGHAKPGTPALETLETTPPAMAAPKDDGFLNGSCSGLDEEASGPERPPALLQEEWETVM
The assay is described as follows: competition binding, human RCM and SaOS-2 membranes.

The target of assay [2] is T1, human PTH/PTHrP receptor (PTH1 receptor). In words: competition of 125I-(Tyr36)hPTHrP-(1-36)NH2 binding, human RCM, SaOS-2 membranes, intact SaOS-2 cells.
The target of assay [3] is T2, canine renal PTH/PTHrP receptor (canine, UniProt Q9TU31 29-595).
T2 sequence (looked up): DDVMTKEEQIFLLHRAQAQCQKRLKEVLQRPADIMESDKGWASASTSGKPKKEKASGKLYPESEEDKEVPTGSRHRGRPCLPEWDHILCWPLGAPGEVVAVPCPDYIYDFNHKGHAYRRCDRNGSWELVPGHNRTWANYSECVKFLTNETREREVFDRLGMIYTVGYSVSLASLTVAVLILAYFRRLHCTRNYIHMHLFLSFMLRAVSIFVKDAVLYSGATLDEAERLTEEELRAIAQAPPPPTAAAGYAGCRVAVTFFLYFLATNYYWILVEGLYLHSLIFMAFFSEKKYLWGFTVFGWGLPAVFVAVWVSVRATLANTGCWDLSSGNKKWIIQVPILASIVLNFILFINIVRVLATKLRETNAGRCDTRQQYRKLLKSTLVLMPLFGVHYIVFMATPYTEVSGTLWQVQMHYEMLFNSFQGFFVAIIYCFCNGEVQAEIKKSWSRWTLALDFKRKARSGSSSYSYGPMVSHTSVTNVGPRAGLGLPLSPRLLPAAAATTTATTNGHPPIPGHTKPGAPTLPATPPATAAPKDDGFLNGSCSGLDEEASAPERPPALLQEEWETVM
In words: competition binding with both radioligands, canine renal cortical membranes.

For assay [4], the target named is T2, canine renal PTH/PTHrP receptor. In words: competition of 125I-[Tyr36]PTHrP-(1-36)amide binding, canine renal cortical membranes, 20 C. On the procedure: Binding assays were conducted in siliconized 12×75 mm borosilicate glass test tubes at 20° C. in a final volume of 0.2 ml. […] Binding was initiated by adding 50 μg membrane. At the end of the incubation periods described, 50 μl triplicate aliquots were layered onto 300 μl of iced binding buffer containing 1.0% BSA in 500 μl polypropylene tubes. The tubes were centrifuged at approximately 16,000×g for three min at 4° C. in a microcentrifuge. The supernatant was aspirated and the tip of the tube containing the membrane-associated radioligand was cut off. Radioactivity in both the pellet and supernatant was measured.
Dissociation constants (Kd) were determined by Scatchard analysis of the data obtained from competitive binding experiments using radioligand and increasing concentrations of unlabeled ligand. […] Statistical differences were assessed by paired Student's t test. […] Significance was determined using a partial F-test.

These are yes or no findings as the source states them, for the method shown. Some entries that bind do so weakly or less than the wild type.

B1: (Nle^8,18, Tyr^34)hPTH-(1-34) (peptide)
peptide: SVSEIQLMHNLGKHLNSMERVEWLRKKLQDVHNY
modifications: norleucine (Nle) at 8 and 18 in place of Met
Consider B1, for which the binding result in assay [1] and in assay [2] was “binds” each time.

B2: [Nle^8,18,Tyr^34]hPTH-(1-34)amide (peptide)
peptide: SVSEIQLMHNLGKHLNSMERVEWLRKKLQDVHNY
modifications: norleucine (Nle) at 8 and 18 in place of Met; C-terminal amide
Consider B2, for which the binding entry in assay [3] and in assay [4] was “binds” each time.
